{
  "source": "patent US20160176955A1",
  "binders": {"B1": {"name": "monoclonal antibody (mAb) 5D5 (antibody, V domains shown)", "VH": "QVHLQQSGGEVARPGASVKLSCKASGYTFTGYGLSWVKQRTGQGLEWIGEIYPRSGNTYYNEKFKGKATLTADKSSSTAYMELRSLTSEDSAVYFCARSWGNSSFVYWGQGTLVTVSA", "VL": "SIVMTQTPKFLLVSAGDRVTITCKASQSVTNDVTWYQQKPGQSPKLLIYYASNRYTGVPDRFTGSGYGTDFTFTISTVQAEDLAVYFCQQDYSSPFTFGSGTKLEIKR"}},
  "target": "peptide 9 (amino acids 81-95 of CSP) (Plasmodium falciparum)",
  "assay": "indirect ELISA, 15-mer peptide mapping",
  "note": "Results are given in words; binding and its absence hold for the method and conditions named. Some binding calls cover weakened binding; strength is not graded here.",
  "data": [
    {"binder": "B1", "values": [
      {"measurement": "binding", "result": "binds"}
    ]}
  ]
}
